Experimental data: PubChem BioAssay AID504784 (Drosophila RNAi Screening Center, 2011)
In all, the deposit lists about 17,000 reagents; this is an unselected part of those with a known target gene and a result. 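Each column is one replicate's B-score; the combined score over replicates was not deposited, so single values may mislead.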 The numbers tell different reagents against one gene apart. Names joined by + are all predicted targets of the reagent. Further read-outs or replicates are left out here.

Assay: 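Search for regulators of lipid droplet storage in oleate-fed fly cells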 (primary screen)
System: Drosophila Kc167 embryonic cells
Reagents: long dsRNA against Drosophila genes, about 250 ng dsRNA per well
Timing: 4 days
Treatment: cells fed 400 µM oleic acid bound to BSA
Read-out: 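Microscope images give a droplet-to-nucleus area ratio, taken as log and converted to a screen-wide B-score; higher values mean greater lipid storage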
Scale: droplet/nuclear area B-score: higher = more stored lipid (overstorage)

CG9701 — droplet/nuclear area B-score, replicate 1: 0.121
EloC — droplet/nuclear area B-score, replicate 1: -0.449
strat — droplet/nuclear area B-score, replicate 1: -0.0247
Tace — droplet/nuclear area B-score, replicate 1: 0.368
mRpL37 — droplet/nuclear area B-score, replicate 1: 1.98
Tis11 #1 — droplet/nuclear area B-score, replicate 1: 3.89
Tis11 #2 — droplet/nuclear area B-score, replicate 1: -0.395
tn #1 — droplet/nuclear area B-score, replicate 1: -0.146
tn #2 — droplet/nuclear area B-score, replicate 1: 0.238
Myo95E — droplet/nuclear area B-score, replicate 1: 7.33
kat80 #1 — droplet/nuclear area B-score, replicate 1: -1.26
kat80 #2 — droplet/nuclear area B-score, replicate 1: 0.0728
CG8541 — droplet/nuclear area B-score, replicate 1: -0.454
obst-F — droplet/nuclear area B-score, replicate 1: -1.09
tbc #1 — droplet/nuclear area B-score, replicate 1: -0.595
tbc #2 — droplet/nuclear area B-score, replicate 1: 0.0948
CG3335 — droplet/nuclear area B-score, replicate 1: -1.31
pcm — droplet/nuclear area B-score, replicate 1: 0.842
Exo70 — droplet/nuclear area B-score, replicate 1: -1.46
RpL7-like + CG34164 #1 — droplet/nuclear area B-score, replicate 1: 0.529
RpL7-like + CG34164 #2 — droplet/nuclear area B-score, replicate 1: 0.857
CG14820 — droplet/nuclear area B-score, replicate 1: -0.412
eIF4G1 — droplet/nuclear area B-score, replicate 1: 6.4
Nnp-1 — droplet/nuclear area B-score, replicate 1: -1.93
lft — droplet/nuclear area B-score, replicate 1: 1.31
CG32320 — droplet/nuclear area B-score, replicate 1: 0.237
ND-49 — droplet/nuclear area B-score, replicate 1: 1.64
